# In article PMC10907362:
# No constants are given. Whether binding was seen depends on the method and setting. In cells and extracts the contact can be indirect. Some results given as binding are weak or reduced against the parent protein; the word gives no strength. Sequences can lack the tags named with a protein.
# T1: USP40-V5 (in HEK293 cells) (human) (UniProt Q9NVE5)
# T1 sequence: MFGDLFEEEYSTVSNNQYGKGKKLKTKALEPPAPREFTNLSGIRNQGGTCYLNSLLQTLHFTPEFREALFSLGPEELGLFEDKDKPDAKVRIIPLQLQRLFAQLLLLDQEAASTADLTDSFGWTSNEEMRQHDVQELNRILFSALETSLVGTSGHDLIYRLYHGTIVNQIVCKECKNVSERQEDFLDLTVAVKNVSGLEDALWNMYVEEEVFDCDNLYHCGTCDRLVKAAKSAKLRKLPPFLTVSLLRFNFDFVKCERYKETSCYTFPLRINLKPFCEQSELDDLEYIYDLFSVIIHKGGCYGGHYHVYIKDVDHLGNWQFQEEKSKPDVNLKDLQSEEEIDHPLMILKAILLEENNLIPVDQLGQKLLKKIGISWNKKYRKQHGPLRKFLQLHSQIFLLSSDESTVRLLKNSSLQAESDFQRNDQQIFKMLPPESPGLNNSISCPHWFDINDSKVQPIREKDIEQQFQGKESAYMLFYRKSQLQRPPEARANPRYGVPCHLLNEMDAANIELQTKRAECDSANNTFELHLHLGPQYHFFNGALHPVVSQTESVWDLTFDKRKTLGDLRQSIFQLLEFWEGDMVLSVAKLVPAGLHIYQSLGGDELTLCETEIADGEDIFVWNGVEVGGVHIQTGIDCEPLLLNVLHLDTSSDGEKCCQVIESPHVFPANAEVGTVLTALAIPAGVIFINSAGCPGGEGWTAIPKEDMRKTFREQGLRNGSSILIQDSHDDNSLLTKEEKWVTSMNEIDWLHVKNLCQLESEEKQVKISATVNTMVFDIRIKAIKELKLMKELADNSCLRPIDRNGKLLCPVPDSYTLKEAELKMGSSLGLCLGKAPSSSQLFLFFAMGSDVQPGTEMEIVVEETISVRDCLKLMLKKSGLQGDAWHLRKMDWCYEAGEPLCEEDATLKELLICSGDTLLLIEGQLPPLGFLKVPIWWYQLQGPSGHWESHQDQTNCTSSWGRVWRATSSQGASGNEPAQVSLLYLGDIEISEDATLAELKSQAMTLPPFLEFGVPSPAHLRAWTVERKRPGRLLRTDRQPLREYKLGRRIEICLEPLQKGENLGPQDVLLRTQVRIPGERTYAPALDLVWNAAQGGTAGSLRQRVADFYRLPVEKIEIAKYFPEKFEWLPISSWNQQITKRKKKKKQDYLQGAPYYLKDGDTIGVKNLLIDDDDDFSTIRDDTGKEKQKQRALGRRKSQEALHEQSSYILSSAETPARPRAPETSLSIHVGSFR
# How the values were obtained:
# [1] = target: T1, USP40-V5 (in HEK293 cells) (human); test: co-IP; HEK293 cells cotransfected with USP40-V5 and HA-tagged N- or C-terminal deletion mutants of HSP90β for 48 h; IP with anti-V5, immunoblot with anti-HA
# [2] = target: Heat shock protein HSP 90-beta (endogenous, HLMVEC) (human (endogenous in HLMVEC)) (UniProt P08238); test: co-IP; HLMVEC lysates (untransfected, or transfected with empty vector or Flag-USP40); IP with anti-USP40 or anti-HSP90β antibody, immunoblot; cells untreated or treated with LPS (0.2 μg/ml, 30 min or 1 h) or TNFα (10 ng/ml, 30 min)
# [3] = target: HA-tagged HSP90β^∆402-406 (UniProt P08238); test: co-IP; HEK293 cells cotransfected with Flag-USP40 and HA-tagged HSP90β (wild type or mutants) for 48 h; IP with anti-HA, immunoblot with the indicated antibodies
# [4] = target: HA-tagged wild-type HSP90β (UniProt P08238); test: as above
# [5] = target: HA-tagged dominant-negative (D88N) HSP90β mutant (UniProt P08238); test: as above
molecule,measurement,setting,value
HA-tagged N-terminal fragment (1-325 aa) of HSP90β (from UniProt P08238 1-325) (domain or fragment),binding,[1],no binding
"USP40 (endogenous, HLMVEC) (enzyme, UniProt Q9NVE5 1-1235) MFGDLFEEEYSTVSNNQYGKGKKLKTKALEPPAPREFTNLSGIRNQGGTCYLNSLLQTLHFTPEFREALFSLGPEELGLFEDKDKPDAKVRIIPLQLQRLFAQLLLLDQEAASTADLTDSFGWTSNEEMRQHDVQELNRILFSALETSLVGTSGHDLIYRLYHGTIVNQIVCKECKNVSERQEDFLDLTVAVKNVSGLEDALWNMYVEEEVFDCDNLYHCGTCDRLVKAAKSAKLRKLPPFLTVSLLRFNFDFVKCERYKETSCYTFPLRINLKPFCEQSELDDLEYIYDLFSVIIHKGGCYGGHYHVYIKDVDHLGNWQFQEEKSKPDVNLKDLQSEEEIDHPLMILKAILLEENNLIPVDQLGQKLLKKIGISWNKKYRKQHGPLRKFLQLHSQIFLLSSDESTVRLLKNSSLQAESDFQRNDQQIFKMLPPESPGLNNSISCPHWFDINDSKVQPIREKDIEQQFQGKESAYMLFYRKSQLQRPPEARANPRYGVPCHLLNEMDAANIELQTKRAECDSANNTFELHLHLGPQYHFFNGALHPVVSQTESVWDLTFDKRKTLGDLRQSIFQLLEFWEGDMVLSVAKLVPAGLHIYQSLGGDELTLCETEIADGEDIFVWNGVEVGGVHIQTGIDCEPLLLNVLHLDTSSDGEKCCQVIESPHVFPANAEVGTVLTALAIPAGVIFINSAGCPGGEGWTAIPKEDMRKTFREQGLRNGSSILIQDSHDDNSLLTKEEKWVTSMNEIDWLHVKNLCQLESEEKQVKISATVNTMVFDIRIKAIKELKLMKELADNSCLRPIDRNGKLLCPVPDSYTLKEAELKMGSSLGLCLGKAPSSSQLFLFFAMGSDVQPGTEMEIVVEETISVRDCLKLMLKKSGLQGDAWHLRKMDWCYEAGEPLCEEDATLKELLICSGDTLLLIEGQLPPLGFLKVPIWWYQLQGPSGHWESHQDQTNCTSSWGRVWRATSSQGASGNEPAQVSLLYLGDIEISEDATLAELKSQAMTLPPFLEFGVPSPAHLRAWTVERKRPGRLLRTDRQPLREYKLGRRIEICLEPLQKGENLGPQDVLLRTQVRIPGERTYAPALDLVWNAAQGGTAGSLRQRVADFYRLPVEKIEIAKYFPEKFEWLPISSWNQQITKRKKKKKQDYLQGAPYYLKDGDTIGVKNLLIDDDDDFSTIRDDTGKEKQKQRALGRRKSQEALHEQSSYILSSAETPARPRAPETSLSIHVGSFR",binding,[2],binds
"Flag-USP40 (in HLMVECs) (enzyme, UniProt Q9NVE5 1-1235) MFGDLFEEEYSTVSNNQYGKGKKLKTKALEPPAPREFTNLSGIRNQGGTCYLNSLLQTLHFTPEFREALFSLGPEELGLFEDKDKPDAKVRIIPLQLQRLFAQLLLLDQEAASTADLTDSFGWTSNEEMRQHDVQELNRILFSALETSLVGTSGHDLIYRLYHGTIVNQIVCKECKNVSERQEDFLDLTVAVKNVSGLEDALWNMYVEEEVFDCDNLYHCGTCDRLVKAAKSAKLRKLPPFLTVSLLRFNFDFVKCERYKETSCYTFPLRINLKPFCEQSELDDLEYIYDLFSVIIHKGGCYGGHYHVYIKDVDHLGNWQFQEEKSKPDVNLKDLQSEEEIDHPLMILKAILLEENNLIPVDQLGQKLLKKIGISWNKKYRKQHGPLRKFLQLHSQIFLLSSDESTVRLLKNSSLQAESDFQRNDQQIFKMLPPESPGLNNSISCPHWFDINDSKVQPIREKDIEQQFQGKESAYMLFYRKSQLQRPPEARANPRYGVPCHLLNEMDAANIELQTKRAECDSANNTFELHLHLGPQYHFFNGALHPVVSQTESVWDLTFDKRKTLGDLRQSIFQLLEFWEGDMVLSVAKLVPAGLHIYQSLGGDELTLCETEIADGEDIFVWNGVEVGGVHIQTGIDCEPLLLNVLHLDTSSDGEKCCQVIESPHVFPANAEVGTVLTALAIPAGVIFINSAGCPGGEGWTAIPKEDMRKTFREQGLRNGSSILIQDSHDDNSLLTKEEKWVTSMNEIDWLHVKNLCQLESEEKQVKISATVNTMVFDIRIKAIKELKLMKELADNSCLRPIDRNGKLLCPVPDSYTLKEAELKMGSSLGLCLGKAPSSSQLFLFFAMGSDVQPGTEMEIVVEETISVRDCLKLMLKKSGLQGDAWHLRKMDWCYEAGEPLCEEDATLKELLICSGDTLLLIEGQLPPLGFLKVPIWWYQLQGPSGHWESHQDQTNCTSSWGRVWRATSSQGASGNEPAQVSLLYLGDIEISEDATLAELKSQAMTLPPFLEFGVPSPAHLRAWTVERKRPGRLLRTDRQPLREYKLGRRIEICLEPLQKGENLGPQDVLLRTQVRIPGERTYAPALDLVWNAAQGGTAGSLRQRVADFYRLPVEKIEIAKYFPEKFEWLPISSWNQQITKRKKKKKQDYLQGAPYYLKDGDTIGVKNLLIDDDDDFSTIRDDTGKEKQKQRALGRRKSQEALHEQSSYILSSAETPARPRAPETSLSIHVGSFR",binding,[2],binds
"Flag-USP40 (in HEK293 cells) (enzyme, UniProt Q9NVE5 1-1235) MFGDLFEEEYSTVSNNQYGKGKKLKTKALEPPAPREFTNLSGIRNQGGTCYLNSLLQTLHFTPEFREALFSLGPEELGLFEDKDKPDAKVRIIPLQLQRLFAQLLLLDQEAASTADLTDSFGWTSNEEMRQHDVQELNRILFSALETSLVGTSGHDLIYRLYHGTIVNQIVCKECKNVSERQEDFLDLTVAVKNVSGLEDALWNMYVEEEVFDCDNLYHCGTCDRLVKAAKSAKLRKLPPFLTVSLLRFNFDFVKCERYKETSCYTFPLRINLKPFCEQSELDDLEYIYDLFSVIIHKGGCYGGHYHVYIKDVDHLGNWQFQEEKSKPDVNLKDLQSEEEIDHPLMILKAILLEENNLIPVDQLGQKLLKKIGISWNKKYRKQHGPLRKFLQLHSQIFLLSSDESTVRLLKNSSLQAESDFQRNDQQIFKMLPPESPGLNNSISCPHWFDINDSKVQPIREKDIEQQFQGKESAYMLFYRKSQLQRPPEARANPRYGVPCHLLNEMDAANIELQTKRAECDSANNTFELHLHLGPQYHFFNGALHPVVSQTESVWDLTFDKRKTLGDLRQSIFQLLEFWEGDMVLSVAKLVPAGLHIYQSLGGDELTLCETEIADGEDIFVWNGVEVGGVHIQTGIDCEPLLLNVLHLDTSSDGEKCCQVIESPHVFPANAEVGTVLTALAIPAGVIFINSAGCPGGEGWTAIPKEDMRKTFREQGLRNGSSILIQDSHDDNSLLTKEEKWVTSMNEIDWLHVKNLCQLESEEKQVKISATVNTMVFDIRIKAIKELKLMKELADNSCLRPIDRNGKLLCPVPDSYTLKEAELKMGSSLGLCLGKAPSSSQLFLFFAMGSDVQPGTEMEIVVEETISVRDCLKLMLKKSGLQGDAWHLRKMDWCYEAGEPLCEEDATLKELLICSGDTLLLIEGQLPPLGFLKVPIWWYQLQGPSGHWESHQDQTNCTSSWGRVWRATSSQGASGNEPAQVSLLYLGDIEISEDATLAELKSQAMTLPPFLEFGVPSPAHLRAWTVERKRPGRLLRTDRQPLREYKLGRRIEICLEPLQKGENLGPQDVLLRTQVRIPGERTYAPALDLVWNAAQGGTAGSLRQRVADFYRLPVEKIEIAKYFPEKFEWLPISSWNQQITKRKKKKKQDYLQGAPYYLKDGDTIGVKNLLIDDDDDFSTIRDDTGKEKQKQRALGRRKSQEALHEQSSYILSSAETPARPRAPETSLSIHVGSFR",binding,[3],binds
same,binding,[4],binds
same,binding,[5],binds
